Data as given in PubChem BioAssay AID1224828 (NIAID, 2016).
The deposit covers about 17,000 reagents; below is an unselected part. Over the whole deposit, 762 (4.5%) are marked active. 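Active calls include both raised and lowered p65 entry, mostly lowered; wells with fewer than 50 cells lack a z-score.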 The raw values are shown without normalisation. A number with no mark means an inactive call.

Screen: 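Find genes required for NF-kappaB p65 moving into the nucleus after LPS in mouse macrophages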 (primary screen)
Cell system: mouse RAW264.7 G9 macrophage reporter cells (GFP-p65, Tnf promoter-mCherry)
Knock-down reagent: siRNA pool against mouse genes, 100 nM
Time to read-out: 2 days siRNA transfection, then 40 min LPS before fixation
Conditions: LPS (Salmonella minnesota R595) at 10 ng/ml
Measured: 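Imaged p65 nuclear translocation ratio, normalised to the plate median, converted to robust z-scores and averaged across two replicates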
Scale: p65 translocation robust z-score: higher = more nuclear NF-kappaB p65 after LPS than the plate median; nuclear/cytoplasmic p65 ratio: higher = more nuclear NF-kappaB p65
Active means: 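Active if robust z is above 3.3 (negative regulators) or below -1.56, the Tlr4 control median (positive regulators); activity score 50 or more; control wells not called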
Meaning of the calls: active = hit (p65 shift raised or lowered); inactive = no clear change

For Ino80e the deposit lists p65 translocation robust z-score 0.77; nuclear/cytoplasmic p65 ratio, rep 1 = 1.78; nuclear/cytoplasmic p65 ratio, rep 2 = 1.74; low cell count flag enough cells to score.
Rbp3 showed p65 translocation robust z-score 0.02; nuclear/cytoplasmic p65 ratio, rep 1 = 1.52; nuclear/cytoplasmic p65 ratio, rep 2 = 1.52; low cell count flag enough cells to score.
Tdrd12 scored nuclear/cytoplasmic p65 ratio, rep 1 = 1.27; nuclear/cytoplasmic p65 ratio, rep 2 = 1.09; low cell count flag fewer than 50 cells per well; well left out of scoring.
Knock-down of Polr3h came out at: nuclear/cytoplasmic p65 ratio, rep 1 = 1.28; nuclear/cytoplasmic p65 ratio, rep 2 = 1.03; low cell count flag fewer than 50 cells per well; well left out of scoring.
Silencing of Slc46a3 came out at: p65 translocation robust z-score -0.02; nuclear/cytoplasmic p65 ratio, rep 1 = 1.42; nuclear/cytoplasmic p65 ratio, rep 2 = 1.42; low cell count flag enough cells to score.
Knock-down of Mos gave: nuclear/cytoplasmic p65 ratio, rep 1 = 1.55; nuclear/cytoplasmic p65 ratio, rep 2 = 1.23; low cell count flag fewer than 50 cells per well; well left out of scoring.
F630111L10Rik showed p65 translocation robust z-score -0.97; nuclear/cytoplasmic p65 ratio, rep 1 = 1.37; nuclear/cytoplasmic p65 ratio, rep 2 = 1.41; low cell count flag enough cells to score.
Ddx21 gave p65 translocation robust z-score -0.17; nuclear/cytoplasmic p65 ratio, rep 1 = 1.57; nuclear/cytoplasmic p65 ratio, rep 2 = 1.5; low cell count flag enough cells to score.
Knock-down of Prl8a1 resulted in: p65 translocation robust z-score 0.55; nuclear/cytoplasmic p65 ratio, rep 1 = 1.5; nuclear/cytoplasmic p65 ratio, rep 2 = 1.23; low cell count flag enough cells to score.
Atrnl1 showed p65 translocation robust z-score -1.07; nuclear/cytoplasmic p65 ratio, rep 1 = 1.34; nuclear/cytoplasmic p65 ratio, rep 2 = 1.46; low cell count flag enough cells to score.
Depletion of Dna2 came out at: p65 translocation robust z-score -1.15; nuclear/cytoplasmic p65 ratio, rep 1 = 1.4; nuclear/cytoplasmic p65 ratio, rep 2 = 1.22; low cell count flag enough cells to score.
Against Eml6, the entry reads nuclear/cytoplasmic p65 ratio, rep 1 = 1.58; nuclear/cytoplasmic p65 ratio, rep 2 = 1.48; low cell count flag fewer than 50 cells per well; well left out of scoring.
After knock-down of Ssu2, the screen gave p65 translocation robust z-score 0.97; nuclear/cytoplasmic p65 ratio, rep 1 = 1.69; nuclear/cytoplasmic p65 ratio, rep 2 = 1.5; low cell count flag enough cells to score.
With knock-down of Eif4g3, the record shows nuclear/cytoplasmic p65 ratio, rep 1 = 1.09; nuclear/cytoplasmic p65 ratio, rep 2 = 1.11; low cell count flag fewer than 50 cells per well; well left out of scoring.
